The results in this text go back to PMC8910697, “Development of VPC-70619, a Small-Molecule N-Myc Inhibitor as a Potential Therapy for Neuroendocrine Prostate Cancer” (International Journal of Molecular Sciences, 2022).

Protein sequences, listed by entry. Tags and fused reporters are not part of them. Lines headed by an entry give the natural chain unless they say otherwise; changes in a name come on top. Residues count along the entry.
UniProt P04198: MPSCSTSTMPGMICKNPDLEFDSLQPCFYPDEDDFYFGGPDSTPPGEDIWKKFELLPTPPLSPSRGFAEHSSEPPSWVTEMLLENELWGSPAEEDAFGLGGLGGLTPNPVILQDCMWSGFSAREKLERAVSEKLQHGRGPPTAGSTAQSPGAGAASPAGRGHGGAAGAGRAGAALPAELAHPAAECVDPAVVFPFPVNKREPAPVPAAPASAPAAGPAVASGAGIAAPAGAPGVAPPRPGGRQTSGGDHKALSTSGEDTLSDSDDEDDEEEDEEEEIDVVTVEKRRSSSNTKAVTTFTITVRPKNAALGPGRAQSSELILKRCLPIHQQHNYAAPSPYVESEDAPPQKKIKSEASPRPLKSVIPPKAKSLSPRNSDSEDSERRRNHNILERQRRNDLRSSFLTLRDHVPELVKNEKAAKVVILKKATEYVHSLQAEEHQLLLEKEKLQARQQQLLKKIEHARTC
UniProt P61244, residues 12-93: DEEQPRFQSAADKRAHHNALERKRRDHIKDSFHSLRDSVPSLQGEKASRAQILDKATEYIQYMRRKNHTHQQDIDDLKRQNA

Results are given in words; binding and its absence hold for the method and conditions named. In cells and extracts the contact can be indirect. Binding calls can cover weak binding; strength is not graded here.

For this experiment, the target named is bHLHLZ domain of N-Myc (amino acids 309–394) (UniProt P04198). Put plainly: co-purification (Ni-NTA IMAC, then size exclusion chromatography); His-N-Myc(309-394) and Max(12-93) co-expressed from pETDuet in E. coli BL21; lysate on Ni-NTA, eluted with 300 mM imidazole, 20 mM Tris pH 8, 500 mM NaCl; then Superdex 75. For orientation: Size exclusion chromatography separates by hydrodynamic size, large species first.

Regarding “Max (amino acids 12–93) (from UniProt P61244 12-93) (domain or fragment)”, the binding entry was “binds”.
